Earlier results as cited in patent publication US20100041669A1, “4-(HETEROCYCLYL)ALKYL-N-(ARYLSULFONYL)INDOLE COMPOUNDS AND THEIR USE AS 5-HT6 LIGANDS” (priority 2007, published 2010).
At least one compound was matched to its structure with a doubt left.

Tested on: 5-HT6 receptor
Conditions: literature; cited from earlier work

For `CN1CCN(C2=Nc3cc(Cl)ccc3Nc3ccccc32)CC1` [clozapine], the “affinity for the 5-HT6 receptor” value is listed as “high affinity”.
